These are yes or no findings as the source states them, for the method shown. Binding seen in cells or lysates may run through a third protein. Some binding calls cover weakened binding; strength is not graded here.
Assays:
[1] = target: Flag-tagged full length SIRT1 (UniProt Q96EB6); experiment: co-IP; HEK293T co-transfected 1:1 for 48 h; lysis in 20 mM Tris-HCl pH 7.5, 150 mM NaCl, 1% Triton; IP with Flag antibody (IgG as control) overnight at 4°C, Protein A/G beads; blot for GFP, reprobed for Flag
[2] = target: Flag-tagged SIRT1 deletion construct Δ8 (UniProt Q96EB6); experiment: as above
[3] = target: HDAC1, endogenous in cerebellar granule neurons (rat (endogenous in cerebellar granule neurons)) (UniProt Q4QQW4); experiment: co-IP; endogenous proteins of rat cerebellar granule neurons treated with HK or LK media for 6 h; IP with IgG, SIRT1 or HDAC1 antibody; same lysis buffer

Protein sequences, listed by entry. Tags and fused reporters are not part of them. Lines headed by an entry give the natural chain unless they say otherwise; changes in a name come on top. Chains listed by the source or under a name are the forms on record and can include a tag or linker.
UniProt Q96EB6: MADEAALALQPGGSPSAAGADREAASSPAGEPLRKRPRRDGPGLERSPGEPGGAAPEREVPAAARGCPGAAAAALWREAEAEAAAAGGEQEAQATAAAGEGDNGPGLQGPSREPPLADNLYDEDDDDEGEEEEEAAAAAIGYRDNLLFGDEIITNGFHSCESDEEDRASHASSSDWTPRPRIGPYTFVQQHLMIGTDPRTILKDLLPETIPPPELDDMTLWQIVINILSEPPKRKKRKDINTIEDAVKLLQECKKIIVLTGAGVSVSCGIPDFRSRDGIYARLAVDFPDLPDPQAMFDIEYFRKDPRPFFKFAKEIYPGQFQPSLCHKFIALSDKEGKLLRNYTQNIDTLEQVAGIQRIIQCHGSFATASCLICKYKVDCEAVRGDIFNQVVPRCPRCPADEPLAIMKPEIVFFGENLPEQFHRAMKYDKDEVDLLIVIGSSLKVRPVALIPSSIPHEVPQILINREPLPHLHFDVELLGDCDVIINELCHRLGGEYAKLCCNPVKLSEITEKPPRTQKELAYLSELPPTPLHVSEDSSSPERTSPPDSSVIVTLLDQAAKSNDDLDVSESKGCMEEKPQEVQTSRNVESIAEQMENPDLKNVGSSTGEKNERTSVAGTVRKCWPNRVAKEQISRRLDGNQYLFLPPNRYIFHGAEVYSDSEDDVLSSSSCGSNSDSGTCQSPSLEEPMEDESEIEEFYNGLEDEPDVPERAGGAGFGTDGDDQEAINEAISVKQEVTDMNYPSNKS
Flag-tagged SIRT1 deletion construct Δ8 (Q96EB6, form named): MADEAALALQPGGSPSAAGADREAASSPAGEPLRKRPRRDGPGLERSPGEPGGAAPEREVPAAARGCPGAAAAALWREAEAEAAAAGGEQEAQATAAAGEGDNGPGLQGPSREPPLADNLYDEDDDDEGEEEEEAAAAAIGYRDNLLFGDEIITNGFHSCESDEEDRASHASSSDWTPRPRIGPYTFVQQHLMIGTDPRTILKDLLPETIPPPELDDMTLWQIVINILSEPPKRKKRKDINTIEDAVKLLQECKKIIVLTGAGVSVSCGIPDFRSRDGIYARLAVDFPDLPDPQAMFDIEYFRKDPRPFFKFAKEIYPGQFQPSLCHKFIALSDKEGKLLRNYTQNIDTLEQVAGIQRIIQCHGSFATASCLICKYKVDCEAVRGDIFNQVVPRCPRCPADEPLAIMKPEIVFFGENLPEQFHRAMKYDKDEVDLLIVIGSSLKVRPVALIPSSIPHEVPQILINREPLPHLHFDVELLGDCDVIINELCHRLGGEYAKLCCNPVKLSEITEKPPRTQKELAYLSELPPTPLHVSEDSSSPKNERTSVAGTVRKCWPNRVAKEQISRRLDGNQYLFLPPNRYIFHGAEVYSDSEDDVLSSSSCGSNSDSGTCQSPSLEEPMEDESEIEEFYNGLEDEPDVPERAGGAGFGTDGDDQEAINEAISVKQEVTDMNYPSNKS
UniProt Q4QQW4: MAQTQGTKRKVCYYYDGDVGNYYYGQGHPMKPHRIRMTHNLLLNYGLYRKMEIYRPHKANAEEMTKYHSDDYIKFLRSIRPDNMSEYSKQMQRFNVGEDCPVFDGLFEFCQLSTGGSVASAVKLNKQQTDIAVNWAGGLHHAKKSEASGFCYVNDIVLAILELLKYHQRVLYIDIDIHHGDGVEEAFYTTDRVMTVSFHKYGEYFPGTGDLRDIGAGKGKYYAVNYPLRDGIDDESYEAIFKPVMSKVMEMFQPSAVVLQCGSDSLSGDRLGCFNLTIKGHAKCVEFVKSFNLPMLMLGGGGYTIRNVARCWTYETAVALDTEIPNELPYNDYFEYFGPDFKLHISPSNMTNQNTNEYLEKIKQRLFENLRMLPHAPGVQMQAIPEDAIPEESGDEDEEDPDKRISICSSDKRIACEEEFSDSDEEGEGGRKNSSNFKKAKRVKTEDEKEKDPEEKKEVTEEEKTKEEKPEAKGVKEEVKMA
UniProt Q13547: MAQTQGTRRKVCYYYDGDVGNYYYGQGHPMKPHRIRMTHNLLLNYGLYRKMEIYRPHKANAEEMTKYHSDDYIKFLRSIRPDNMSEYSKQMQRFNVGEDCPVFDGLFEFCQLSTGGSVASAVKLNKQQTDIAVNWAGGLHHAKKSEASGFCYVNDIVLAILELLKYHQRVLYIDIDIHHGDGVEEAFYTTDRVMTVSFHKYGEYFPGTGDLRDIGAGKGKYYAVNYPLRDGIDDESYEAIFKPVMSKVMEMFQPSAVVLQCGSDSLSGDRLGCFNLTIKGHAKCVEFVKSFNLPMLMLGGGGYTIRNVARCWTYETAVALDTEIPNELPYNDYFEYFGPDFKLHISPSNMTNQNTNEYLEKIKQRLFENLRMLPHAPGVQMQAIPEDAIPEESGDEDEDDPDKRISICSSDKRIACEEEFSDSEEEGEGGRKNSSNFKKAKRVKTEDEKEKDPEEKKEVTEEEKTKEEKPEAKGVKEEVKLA

## HDAC1-Δ56-GFP (from UniProt Q13547 57-482) (domain or fragment)
[1]
  binding: binds
[2]
  binding: binds

## HDAC1-GFP (from UniProt Q13547 1-482)
[1]
  binding: binds
[2]
  binding: binds

B1: SIRT1, endogenous in cerebellar granule neurons (protein, UniProt A0A0G2JZ79 1-741)
chain: MADEAALALQAGGSPSAAAAMEAASQPADEPLRKRPRRDGPGLGRSPGEPSAAAAAAAAAAGCEAASAAAPAALWREAAGAAAASAEREAPATAAAGDGDNGPGLRREPRAADDFDDDEGEEEDEAAAAAAAAIGYRDNLLLADEIITNGFHSCESDDDDRASHASSSDWTPRPRIGPYTFVQQHLMIGTDPRTILKDLLPETIPPPELDDMTLWQIVINILSEPPKRKKRKDINTIEDAVKLLQECKKIIVLTGAGVSVSCGIPDFRSRDGIYARLAVDFPDLPDPQAMFDIEYFRKDPRPFFKFAKEIYPGQFQPSLCHKFIALSDKEGKLLRNYTQNIDTLEQVAGIQRIIQCHGSFATASCLICKYKVDCEAVRGDIFNQVVPRCPRCPADEPLAIMKPEIVFFGENLPEQFHRAMKYDKDEVDLLIVIGSSLKVRPVALIPSSIPHEVPQILINREPLPHLHFDVELLGDCDVIINELCHRLGGEYAKLCCNPVKLSEITEKPPRTQKELVHLSELPPTPLHISEDSSSPERTVPQDSSVIATLVDQTIKNKVDDLEVSEPKSCVEEKSQEVQTYRNVESINVENPDFKAVGSSTGDKNERTSVAETVRKCWPNRLAKEQISKRLDGNQYLFVPPNRYIFHGAEVYSDSEDDALSSSSCGSNSDSGTCQSPSLEEPLEDESEIEEFYNGLEDDADRPECAGGSGADGGDQEAVNEAIAMKQELTDVNCTPDKSEHY
[3]
  binding: binds

— publication PMC6459503
